Measurements: paper PMC7949054
Results are given in words; binding and its absence hold for the method and conditions named. Binding seen in cells or lysates may run through a third protein. Some binding calls cover weakened binding; strength is not graded here.

By UniProt entry, the sequences of proteins in these tests, tags left out.
UniProt P30622: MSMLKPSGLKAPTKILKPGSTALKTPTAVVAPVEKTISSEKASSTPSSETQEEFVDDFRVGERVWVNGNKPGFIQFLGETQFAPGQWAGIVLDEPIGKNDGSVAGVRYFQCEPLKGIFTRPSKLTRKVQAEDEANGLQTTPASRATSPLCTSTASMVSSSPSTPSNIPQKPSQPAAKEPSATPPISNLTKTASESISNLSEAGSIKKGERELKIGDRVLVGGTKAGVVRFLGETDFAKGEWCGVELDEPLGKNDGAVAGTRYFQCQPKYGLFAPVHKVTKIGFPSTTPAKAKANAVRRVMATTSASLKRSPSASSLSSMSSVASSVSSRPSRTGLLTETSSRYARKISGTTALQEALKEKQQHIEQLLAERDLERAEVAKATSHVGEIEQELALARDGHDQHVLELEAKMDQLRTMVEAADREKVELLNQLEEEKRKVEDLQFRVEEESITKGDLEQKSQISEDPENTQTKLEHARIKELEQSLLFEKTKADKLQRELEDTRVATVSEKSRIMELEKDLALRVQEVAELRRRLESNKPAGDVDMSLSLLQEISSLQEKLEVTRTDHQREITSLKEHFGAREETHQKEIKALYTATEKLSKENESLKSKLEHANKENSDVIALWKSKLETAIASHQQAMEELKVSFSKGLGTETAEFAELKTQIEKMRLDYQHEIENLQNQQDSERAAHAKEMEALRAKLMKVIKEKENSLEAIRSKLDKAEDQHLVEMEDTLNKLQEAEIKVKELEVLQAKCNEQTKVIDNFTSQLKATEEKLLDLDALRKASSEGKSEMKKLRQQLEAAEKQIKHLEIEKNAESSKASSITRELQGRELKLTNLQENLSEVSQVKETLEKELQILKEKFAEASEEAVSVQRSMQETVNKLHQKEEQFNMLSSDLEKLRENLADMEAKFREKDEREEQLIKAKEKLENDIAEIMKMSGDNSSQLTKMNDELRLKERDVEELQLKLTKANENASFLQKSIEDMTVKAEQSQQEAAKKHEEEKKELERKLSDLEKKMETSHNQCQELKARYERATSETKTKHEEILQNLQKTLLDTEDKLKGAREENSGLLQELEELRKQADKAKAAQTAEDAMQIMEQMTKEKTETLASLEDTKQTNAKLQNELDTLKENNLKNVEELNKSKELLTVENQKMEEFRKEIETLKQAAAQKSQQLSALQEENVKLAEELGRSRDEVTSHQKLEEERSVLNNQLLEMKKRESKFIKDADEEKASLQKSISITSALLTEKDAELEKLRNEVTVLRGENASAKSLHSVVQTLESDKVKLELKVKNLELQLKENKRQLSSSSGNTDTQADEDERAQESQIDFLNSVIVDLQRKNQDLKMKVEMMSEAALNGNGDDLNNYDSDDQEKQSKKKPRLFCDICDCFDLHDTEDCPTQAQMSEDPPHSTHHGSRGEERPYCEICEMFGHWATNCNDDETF
UniProt Q15691: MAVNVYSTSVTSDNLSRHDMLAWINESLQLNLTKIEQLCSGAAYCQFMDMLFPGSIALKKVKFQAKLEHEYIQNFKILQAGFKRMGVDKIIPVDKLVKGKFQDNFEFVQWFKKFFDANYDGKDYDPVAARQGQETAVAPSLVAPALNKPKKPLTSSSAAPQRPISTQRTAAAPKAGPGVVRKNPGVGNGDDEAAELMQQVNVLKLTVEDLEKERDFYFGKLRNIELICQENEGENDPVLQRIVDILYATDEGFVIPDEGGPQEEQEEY

Columns and labels:
[1] = target: T1, CLASP2, endogenous (human (endogenous in HPAEC)) (UniProt O75122); assay: co-IP; lysates of HPAEC expressing Myc-SOCS3 (TBS-NP40: 20 mM Tris pH 7.4, 150 mM NaCl, 1% NP40); precipitated with antibodies to the endogenous partner (gp130, JAK2, α- or β-tubulin, CLIP-170, CLASP2) overnight at 4 °C, Protein G agarose; blot for Myc or EB1; in Fig. 7C also after IL-6 or HKSA (6 h)
T1 sequence: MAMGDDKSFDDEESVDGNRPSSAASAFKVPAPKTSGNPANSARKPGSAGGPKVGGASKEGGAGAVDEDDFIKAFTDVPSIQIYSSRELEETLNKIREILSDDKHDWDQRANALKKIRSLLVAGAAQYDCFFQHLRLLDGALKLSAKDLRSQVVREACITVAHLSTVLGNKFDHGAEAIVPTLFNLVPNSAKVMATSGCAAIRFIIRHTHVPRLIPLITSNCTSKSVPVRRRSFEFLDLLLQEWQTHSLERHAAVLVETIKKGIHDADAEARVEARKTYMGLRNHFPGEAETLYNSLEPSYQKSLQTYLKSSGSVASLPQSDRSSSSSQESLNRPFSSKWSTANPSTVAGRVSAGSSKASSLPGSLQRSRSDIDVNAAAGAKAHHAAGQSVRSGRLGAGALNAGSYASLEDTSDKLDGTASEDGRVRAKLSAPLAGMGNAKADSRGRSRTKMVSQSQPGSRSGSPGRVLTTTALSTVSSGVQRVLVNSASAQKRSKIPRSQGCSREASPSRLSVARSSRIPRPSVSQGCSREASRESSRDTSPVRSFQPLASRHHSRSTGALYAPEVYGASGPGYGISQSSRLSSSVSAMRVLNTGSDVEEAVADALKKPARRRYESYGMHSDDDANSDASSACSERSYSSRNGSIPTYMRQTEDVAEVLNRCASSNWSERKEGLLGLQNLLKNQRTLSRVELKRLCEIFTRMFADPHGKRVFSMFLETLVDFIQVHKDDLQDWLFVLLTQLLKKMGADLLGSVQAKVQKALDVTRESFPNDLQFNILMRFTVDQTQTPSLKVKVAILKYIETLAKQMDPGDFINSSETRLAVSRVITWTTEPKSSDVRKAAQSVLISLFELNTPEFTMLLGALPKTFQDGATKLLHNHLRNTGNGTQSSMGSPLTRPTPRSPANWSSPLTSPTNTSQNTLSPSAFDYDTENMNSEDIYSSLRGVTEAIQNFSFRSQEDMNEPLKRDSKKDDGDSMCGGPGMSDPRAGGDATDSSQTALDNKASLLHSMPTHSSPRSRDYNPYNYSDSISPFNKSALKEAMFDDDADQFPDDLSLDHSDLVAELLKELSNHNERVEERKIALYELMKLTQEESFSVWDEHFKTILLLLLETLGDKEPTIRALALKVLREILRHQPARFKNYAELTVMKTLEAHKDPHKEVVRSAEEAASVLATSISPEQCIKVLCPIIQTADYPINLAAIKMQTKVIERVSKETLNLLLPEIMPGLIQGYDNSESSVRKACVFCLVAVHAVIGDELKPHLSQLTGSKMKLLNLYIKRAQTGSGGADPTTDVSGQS

[2] = target: CLIP-170, endogenous (human (endogenous in HPAEC)) (UniProt P30622); assay: as above

binding [1]: binds
binding [2]: binds
Substance: EB1 (End-Binding Protein 1), endogenous (from UniProt Q15691 1-268)
